Our source for the binding values is paper PMC4140821.

Protein sequences, listed by entry. Tags and fused reporters are not part of them.
UniProt Q13098: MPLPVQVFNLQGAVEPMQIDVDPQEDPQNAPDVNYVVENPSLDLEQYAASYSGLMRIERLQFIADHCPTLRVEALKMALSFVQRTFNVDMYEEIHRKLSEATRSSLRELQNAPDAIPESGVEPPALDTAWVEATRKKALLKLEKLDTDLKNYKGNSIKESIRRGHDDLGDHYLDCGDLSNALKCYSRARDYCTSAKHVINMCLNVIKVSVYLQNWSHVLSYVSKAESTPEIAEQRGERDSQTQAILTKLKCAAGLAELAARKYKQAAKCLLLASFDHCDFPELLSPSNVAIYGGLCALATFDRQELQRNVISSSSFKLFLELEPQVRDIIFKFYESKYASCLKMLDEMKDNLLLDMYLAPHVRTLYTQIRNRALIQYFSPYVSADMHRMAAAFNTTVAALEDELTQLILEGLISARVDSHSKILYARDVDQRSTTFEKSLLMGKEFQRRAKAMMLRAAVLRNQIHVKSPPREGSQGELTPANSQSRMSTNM
UniProt Q92905: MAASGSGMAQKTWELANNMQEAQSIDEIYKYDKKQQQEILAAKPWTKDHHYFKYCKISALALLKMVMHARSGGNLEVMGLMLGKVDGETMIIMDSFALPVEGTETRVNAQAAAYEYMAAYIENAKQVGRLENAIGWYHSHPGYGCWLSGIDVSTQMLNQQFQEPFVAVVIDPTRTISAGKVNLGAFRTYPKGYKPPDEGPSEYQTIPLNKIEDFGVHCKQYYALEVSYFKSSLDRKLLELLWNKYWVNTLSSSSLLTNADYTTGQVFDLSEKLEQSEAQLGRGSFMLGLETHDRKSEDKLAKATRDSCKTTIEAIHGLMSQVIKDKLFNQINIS

No constants are given. Whether binding was seen depends on the method and setting. Some results given as binding are weak or reduced against the parent protein; the word gives no strength.

For this experiment, the target named is CSN1 (subunit of the recombinant CSN) (human) (UniProt Q13098). In words: cross-linking; CX-MS: about 100 µl of 1.2 mg/ml recombinant CSN cross-linked with 1 mM DSS d0/d12, tryptic digestion, LC-MS/MS, xQuest; both purified.

As for “CSN5 (subunit of the recombinant CSN) (from UniProt Q92905 1-334)”, the binding entry is recorded as “binds”.
